The values below come from PMC10350107.

These are yes or no findings as the source states them, for the method shown. Where a sequence is shown, tags or fusion partners need not be part of it.

For this assay, the target named is T1, FLAG-MCM8, wild type human MCM8 (human), Q9UJA3.
T1 chain: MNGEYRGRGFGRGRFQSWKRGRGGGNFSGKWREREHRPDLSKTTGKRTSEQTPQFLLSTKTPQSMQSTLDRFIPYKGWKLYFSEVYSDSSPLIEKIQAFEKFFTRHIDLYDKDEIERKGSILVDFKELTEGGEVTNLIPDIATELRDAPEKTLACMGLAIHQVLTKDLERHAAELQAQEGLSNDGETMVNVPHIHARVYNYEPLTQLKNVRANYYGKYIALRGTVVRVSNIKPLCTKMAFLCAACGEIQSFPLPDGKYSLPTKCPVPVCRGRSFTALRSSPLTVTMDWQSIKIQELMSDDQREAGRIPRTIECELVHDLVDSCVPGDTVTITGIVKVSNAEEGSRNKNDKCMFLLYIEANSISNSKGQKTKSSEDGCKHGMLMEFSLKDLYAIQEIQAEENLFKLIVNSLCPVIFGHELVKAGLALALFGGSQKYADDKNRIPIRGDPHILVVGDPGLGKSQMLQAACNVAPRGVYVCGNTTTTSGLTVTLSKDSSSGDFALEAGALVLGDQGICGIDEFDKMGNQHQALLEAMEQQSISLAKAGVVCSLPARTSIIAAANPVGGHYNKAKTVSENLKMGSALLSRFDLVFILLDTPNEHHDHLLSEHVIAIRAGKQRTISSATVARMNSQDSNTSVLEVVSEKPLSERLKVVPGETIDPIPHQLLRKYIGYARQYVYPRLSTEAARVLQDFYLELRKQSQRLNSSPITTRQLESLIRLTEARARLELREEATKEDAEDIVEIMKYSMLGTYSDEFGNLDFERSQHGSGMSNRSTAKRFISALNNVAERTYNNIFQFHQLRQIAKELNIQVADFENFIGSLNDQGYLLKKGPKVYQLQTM
Briefly: mass photometry; 50 mM Tris-HCl pH 7.5, 100 mM NaCl; 50–200 nM final protein; no DNA; for MCM8–9 oligomers are counted in subunits (heterodimer 266 kDa, hexamer 798 kDa): heterodimers to tetramers and hexamers; both purified. Particulars: remark: other sources report otherwise.

B1: FLAG-MCM8, wild type human MCM8, Q9UJA3 1-840 (protein)
chain: MNGEYRGRGFGRGRFQSWKRGRGGGNFSGKWREREHRPDLSKTTGKRTSEQTPQFLLSTKTPQSMQSTLDRFIPYKGWKLYFSEVYSDSSPLIEKIQAFEKFFTRHIDLYDKDEIERKGSILVDFKELTEGGEVTNLIPDIATELRDAPEKTLACMGLAIHQVLTKDLERHAAELQAQEGLSNDGETMVNVPHIHARVYNYEPLTQLKNVRANYYGKYIALRGTVVRVSNIKPLCTKMAFLCAACGEIQSFPLPDGKYSLPTKCPVPVCRGRSFTALRSSPLTVTMDWQSIKIQELMSDDQREAGRIPRTIECELVHDLVDSCVPGDTVTITGIVKVSNAEEGSRNKNDKCMFLLYIEANSISNSKGQKTKSSEDGCKHGMLMEFSLKDLYAIQEIQAEENLFKLIVNSLCPVIFGHELVKAGLALALFGGSQKYADDKNRIPIRGDPHILVVGDPGLGKSQMLQAACNVAPRGVYVCGNTTTTSGLTVTLSKDSSSGDFALEAGALVLGDQGICGIDEFDKMGNQHQALLEAMEQQSISLAKAGVVCSLPARTSIIAAANPVGGHYNKAKTVSENLKMGSALLSRFDLVFILLDTPNEHHDHLLSEHVIAIRAGKQRTISSATVARMNSQDSNTSVLEVVSEKPLSERLKVVPGETIDPIPHQLLRKYIGYARQYVYPRLSTEAARVLQDFYLELRKQSQRLNSSPITTRQLESLIRLTEARARLELREEATKEDAEDIVEIMKYSMLGTYSDEFGNLDFERSQHGSGMSNRSTAKRFISALNNVAERTYNNIFQFHQLRQIAKELNIQVADFENFIGSLNDQGYLLKKGPKVYQLQTM
Regarding B1, the binding result is given as “no binding”.
